Laboratory results reported in patent US20080226579A1, “Novel Resinate Complex of S-Clopidogrel and Production Method Thereof” (Chong Kun Dang Pharmaceutical Corp., priority 2005, published 2008).
Some of these results come from one statement about several compounds together.

Experiment: Heat stability test (stress storage at 80° C., clopidogrel content by HPLC)
Type: physicochemical
Conditions: tightly closed container at 80° C., day 3, content of clopidogrel by HPLC
Description: Each of the (+)-clopidogrel isomer-resinate complex, so obtained from Examples 1, 2 and 8, including a solid form of (+)-clopidogrel optical isomer-Amberlite complex and (+)-clopidogrel isomer (free base), so obtained from Comparative examples 1 and 2, were put into a tightly closed container at 80° C. to determine the contents of clopidogrel in the baseline, day 1 and day 3 by HPLC analysis in accordance with a content uniformity test of the U.S. Pharmacopoeia.
(HPLC Analysis) • Column: ULTRON ES-OVM chiral 5 ? , 4.6×250 mm • Mobile phase: 0.01 M potassium dihydrogen phosphate solution/acetonitrile 75:25 • Flow rate: 1 mL/min • Column temperature: Room temperature • Detector: Ultraviolet absorption spectrophotometer (detection wavelength: 220 nm) • Injection volume: 10 ?

Methyl(+)-(S)-(2-chlorophenyl)(6,7-dihydro-4H-thieno[3,2-c]pyridine-5-yl)acetate-Amberlite complex [compound 1]
content at day 3: less than 60%
